Among the data in article PMC12632274, “The PA2803-encoded PcrP exhibits a novel non-catalytic function and contributes to polymyxin B resistance in P. aeruginosa” (Journal of Bacteriology, 2025) are binding values, retold here.

The labels stand for the following.
B1: Methyltransferase (PA5457) (protein, UniProt Q9HTB3 1-287)
chain: MIRALLQRWRSRPAAASEPVSPRMCGLRDAVLDGWFRSETGELLAGFAIGAQDTLLDLGCGEGVATLFAARQGASVIFTDSEEDKVRSLAQQVEAVARRPFTGLVSDSDPLPLRDACADKLVCMEVLEHVANPARVMAELVRLGRPGAQYLLSVPDPVGEHLQQGIAPADYFRAPNHIHIFSRDDFARLVQDAGLVIEHRQASGFFWVMGMIFFWASERAAGRELGGAVRDRIQPPYPALMEDWARLWENLLARPDGLEIKHLLDHFMPKSQVIIARKPLDPGSSRT
B2: PA1545 hypothetical protein (protein, UniProt Q04628 1-155)
chain: MLTLSGWITTQVPPSSRAAADAKAARTGTAEQAEDPAAGTDAADQHVQLSQAGRELAATMGVPVEEEDEDIPQELRPMVKMIRELKKKIEEKLRELQEAMRSSDPGAKEARVPELQKELQQLNSALQTATAAMASAIKEMGISDPALIMKVMGSR
B3: PA3518 hypothetical protein (protein, UniProt Q9HY91 1-328)
chain: MNTRNFSLPQLQNLPIEEARIVADALAVHATSRQIDSAASKLAALAEAGLKGDRQAYAAYQQLLYVLSLSDDVATAQTRRWLARAIYRVEERFMPAADLSRALSEEDFQKRLEQEIAAQSRERHPMSQYVFSGSASRAQLQVFLRHQWFRTFRLYRDAADLLVNLTDVDEAAALARYLYGELGEEDEKGSHPRLLAKLLEAIGLEADFQAVSTMPEEIAYLNNRARAFRHAEVGWGLAVFYITELVVPGNHEKLYRALLQAGLSEDQAEYYKVHISLVPPRAKREWQLIARRIPDVQFQNAFLTSLSQHFRVERAYYDAIWEEMQSVK
B4: Coproporphyrinogen III oxidase (PA1546) (protein, UniProt P77915 1-460)
chain: MLDTIRWDADLIRRYDLSGPRYTSYPTAVQFHEGIGPFDQLHALRDSRKAGHPLSLYVHIPFCANICYYCACNKVITKDRGRSAPYLARLVREIEIVSRHLSREQVVEQLHFGGGTPTFLSPGQLRELMSQLRTHLNLLDDDSGDYGIEIDPREADWSTMGLLRELGFNRVSLGVQDFDMEVQKAVNRMQTPEETRTIVEAARTLQYRSINLDLIYGLPKQTPDSFARTVDEVIALQPDRLSVFNYAHLPERFMPQRRINADDLPSPGQKLEMLQRTTEQLAAAGYRYIGMDHFALPDDELASAQEDGTLQRNFQGYTTHGHCDLVGLGVSAISQIGDLYSQNSSDINDYQTSLDNGQLAIRRGLHCNSDDRVRRAVIQQLICHFELAFEDIETEFGIDFRSYFAELWPDLERFAADGLIRLDAKGIDITSSGRLLVRSICMLFDRYLPSLNRQRFSRVI
B5: PA5475 hypothetical protein (protein, UniProt Q9HT95 1-186)
chain: MSNVQNASRSSAFAAVEGDHWVESLDDGRHVLIRPLREEDRERERQFINRLSPATRHFRFLGEIKEASPALLDQLMDIDYQQSMAFVALVHEDGELREVGISRYAACCEEGQCECAVTIADDYQGLGLDAVLMRHLIDVARRNGFRQMYSVDSAANRAMRDLCCALGFVGQRDPDDSTQVIHRLAL
B6: PqsB (PA0997) (protein, UniProt Q9I4X2 1-283)
chain: MLIQAVGVNLPPSYVCLEGPLGGERPRAQGDEMLMQRLLPAVREALDEAAVKPEEIDLIVGLALSPDHLIENRDIMAPKIGHPLQKVLGANRAHVFDLTDSSLARALYVVDTLASDQGYRNVLVVRGESSQGLEVDSESGFALADGALALLCRPTGKAAFRRGALGGDPAQEWLPLSIPLNTDIRQVGDVKGHLNLPAQPGLPEAVRAGFTRLAGDFPQLNWVREEWFGQGRPDGRCLGPFELASQLRAAQRDRLDELLLISFDPFGMVVEGVTLELAGEAHA
B7: PA1218 hypothetical protein (protein, UniProt Q9I4C0 1-292)
chain: MKHYRQVVSPQLRQQALDWILAAAQRPDPALEPEFDIADDERREAKKVRNLHRHDPLFWDDWFARSGLDALVRDHLRKPRLLRHAAFIKRHADESYIPLHQDIALWEKRYESAQTFWVALTPSRNDNGGMFYYPDDRTIFPHEFDLAYPMFKCIDLQANGISREQLVDAELDAGDVLVWPARTAHGSHNNRSGQLRIGMPIVFVEDDEFHQLNREDSMKTWIASNLKSVFPDEAITEDNLDHYLPQLCDYSLKMVTFLARFSRQFGHAPKIHDFIREPRLATLSASDAGARR
B8: PA3233 hypothetical protein (protein, UniProt Q9HZ07 1-599)
chain: MPDSFNFASPPFDQLRPHQRETLKQALSVGYYAPGETLLEAGSAVPGLFVLLKGVVEERGDDGRVFAQYAADDLFDVRGLFSGSSKHRYLAIEESIVYELPASCFHQLCGENPGFARFFQADLAAKRQLAQRDGQNLAEFILTRIAREHLLPALEVEASLSLGDAARLQLSHGADALLVRLERDGPELGIVTRTDLMSAHFRDGRSELEAIGPLAHGPLASVELGDFLFDAMILMTRQRIERVAVTEDGQVIGLLHLTQVLSLFSTHSHVLALRIARADDLGDLRRCAETLDTLIATLAGNGIRLRFIMQLVSALNEQLLERLFELLLPPTLRGRCCLLVMGSEGRGEQLLKTDQDNALVLADDLPQEQALAMMQRFSAALLEFGYPPCPGGVMASRPEWCKPLAAWQAELRGTLLEGKPEQLLRLSILADAWPVAGNLQLFEPLRWQLRGFADGGERWLADIAAAALQFDTPLTFLGQLKTQDARLDLKRGGIFPIVHGIRTLALREGLETRGTLARIEALKRHKVLEARLADDLSESFELFLQLRLTRQLAGQRDGRQQGLDVSGMSRHDRDMLRYGLHVVKKFKQSVARQFHLETR
B9: PA0805 hypothetical protein (protein, UniProt Q9I5D3 1-75)
chain: MSIQHRTQDAIRTLTAAFAPFDCLIQATRKGNFSFTIVDQHGVACHSERLYPEQYDDSGKMEEVINRVRKKTLAA
B10: PA3374 conserved hypothetical protein (protein, UniProt Q9HYM7 1-387)
chain: MSSERVLSNARVVSAERVFVGSVLLRDGLIAAVDEGRSHLAGAEDLGGDYLLPGLVELHTDNLEKHMTPRPGVDWPSASAVLAHDAQIVSAGITTVFDALSIGDVNPKGKRMQQLPKMLEAIGEAAASGDARADHRLHLRCEVSHPQTLEVFRELVEHPLVQLVSVMDHAPGQRQFARLEKYREYYQGKYHLSDAEMDAFIVEQVANSERYSDAARAAIVDVCQGRGLSVASHDDATLAHVRESAGYGMAIAEFPTTVEAARASHEHGLQVLMGAPNVVRGGSHSGNVAAAQLAGIGVLDILSSDYYPASLLHAALLLAGEHSEYDAIRYDLPRAVAMVSRTPALAAGLTDRGEIRVGLRADLLQARALGNNQPVVRQVWRGGQRVF
B11: PA5027 hypothetical protein (protein, UniProt Q9HUE2 1-271)
chain: MIRHLLVAHDLTPEADVALARAAQLARQHDARVSLLHVYDPGLSASAVKTVSAMLQLKRKEAGLDEDSAIHLFRGQPIDGILQQTRALEPDLLLMGAHHQKTFERFGNTTLDQVVRRSRVPVLLAVREADEPYRQALSALDFSQCACTALRQAYRLLPVEADLHALHVFESPDDGVLGLPRQNAAHLATQAGLIEQLLSDEQERLPGVGPQLSHEVVPGVLPYSLDAALKQRQPELLALGRHSRNALMQALLGNLAQRYLRQPSCDVLVTS
B12: PA5269 hypothetical protein (protein, UniProt Q9HTT1 1-91)
chain: MSEQDDNQEDGFAEEKLIQAIENQIESENPPAARAVFNKLTLVGYERDEALGMMAYVLAHEINAMLAADRAFDSAGYEHALRALPTLPDDE
B13: 50S ribosomal protein L27 (PA4567) (protein, UniProt Q9HVL7 1-85)
chain: MAHKKAGGSTRNGRDSESKRLGVKLFGGQAVKAGNILVRQRGTKFHAGYGVGLGKDHTLFAKVDGVVKFETKGAFGRKYVSIVAA
B14: PA3720 hypothetical protein (protein, UniProt Q9HXS1 1-141)
chain: MNAPAKSLLDIDAFPLVQVREMPRELADVERWLEEVEALLAVERDFALVYPPLPQETAEGDQQARKRLVLWLKENRQRFVEHCRGILLSANGQPDNLADLQQLAPVLQAVYGPPVSVAPDLASARGMAKALLSGPATGMNW

Results are given in words; binding and its absence hold for the method and conditions named. In cells and extracts the contact can be indirect. A yes stands for co-enrichment or nearness to the bait. Other partners may have been found.

The target of this test is 6xHis-PcrP expressed in P. aeruginosa PAO1 ΔpcrP (P. aeruginosa PAO1) (UniProt Q9I040). Put plainly: affinity purification with mass spectrometry; 6xHis-PcrP as bait in lysate of PAO1 ΔpcrP grown in BMM8 at 0 or 5 mM Ca2+; HisPur Ni-NTA resin, 4°C, 2 h, 10 mM Tris-HCl pH 7.5; LC-MS/MS; ΔpcrP as negative control.
With “Protein phosphatase (PA2978) (from UniProt Q9HZM6)”, the binding result was “binds”.

HsiB2 (PA1657) (from UniProt Q9I368): the binding entry is “binds”.

On to “Protease subunit HflC (PA4941) (from UniProt Q9HUM3)”, for which the binding entry was “binds”.

For B1, the binding entry is listed as “binds”.

As to B2, the binding entry is reported as “binds”.

For the molecule B3, the binding result is “binds”.

B4: the binding entry was “binds”.

As for B5, the binding entry is recorded as “binds”.

In the case of B6, the binding entry is “binds”.

Turning to B7, the binding result is “binds”.

For B8, the binding result is recorded as “binds”.

Regarding B9, the binding entry was “binds”.

For the molecule B10, the binding entry was “binds”.

Turning to B11, the binding entry was “binds”.

As for B12, the binding entry is “binds”.

In the case of B13, the binding entry was “binds”.

On to B14, for which the binding entry was “binds”.
